# Source: the supplement of paper PMC10338343
# ± gives the standard deviation. This is a selection; strong and weak results do not stand in their true shares. The uncertainty is large for many entries.
# Test system: MILI (PIWIL2) piRISC loaded with piRNA #2 (26 nt)
# Experiment: pre-steady-state target cleavage rate (min^-1); MIWI and MILI are mouse PIWI proteins and EfPiwi is from a freshwater sponge; tags in brackets are library labels; higher = faster piRNA-guided slicing of the target
# Conditions: guide: piRNA #2 5'p-UUAGGUAACCCAGUAGAUCCAGAGGA; auxiliary factor: 500 nM mouse GTSF1
# Method: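 Cleave-'n-Seq: a library of target RNAs (target site embedded in constant flanks, ACAGCATTCCGCGTTAGTGATATCCG... 5' flank; DNA-blocked outside the site) at 0.1 nM was incubated with 1 nM active mouse MILI or MIWI piRISC (synthetic 5'-monophosphorylated piRNA guide) with or without 500 nM mouse GTSF1 at 33 °C for 1 min to 16 h. Uncleaved targets were sequenced and normalised to non-target controls, and the pooled three trials were fitted to a burst-and-steady-state model to give the pre-steady-state cleavage rate (min^-1; k3 is constrained to at most 1e-4). Sequence is the target site only; target names encode pairing extent (gX:gY) and contiguous / 1-mismatch / 2-mismatch / bulge geometry. Fits with R² ≤ 0 are excluded.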
row,Sequence,pre-steady-state target cleavage rate
1,CUUAAGGUCUGGAUCUACUGCCUUACCUAA,0.000395 ± 0.02
2,CUUAAGGAGACCAUCUACUGCGUUAGCUAA,0.000199 ± 0.036
3,CUUAAGGACUCGAUCUACUGGGUUACCUAA,0.0128 ± 0.0065
4,CUUAAGGAGACCUUCUACUGGUUACCUAA,0.000548 ± 0.0072
5,CUUAAGGAGACCUAGAUGGGGGUUACCUAA,0.000504 ± 0.031
6,CUUAAGGAGACCUUCUACAGGGUAACCUAA,0.000458 ± 0.016
7,CUUAAGGAGACCUAGAUGAGGGUUACCUGAA,0.00032 ± 0.023
8,CUUAAGGAGACCAUCUACUGGGCUUACCUAA,0.000654 ± 0.02
9,CUUAACCUCUGGAUCUAGACGGUUACCUAA,0.00288 ± 0.0035
10,CUUAAGCUCUGUAUCUACUGGGUUACCUAA,0.0444 ± 0.0099
11,CUUAAGGAGACGAUCUACUGGUGUUACCUAA,0.00091 ± 0.0058
12,CUUAAGGAGAGGUUCUACUGGCUUACCUAA,0.000816 ± 0.0095
13,CUUAAGGAGACGAUCUUCUGCGUUACCUAA,0.00256 ± 0.0031
14,CUUAACCUGUGGAUCUACUCGGUUACCUAA,0.00105 ± 0.013
15,CUUAAGGAGACCUUGAACUGGGUUACCUAA,0.000419 ± 0.017
16,CUUAAGGAGAGGAUCUAGUGGGUUACCUAA,0.00355 ± 0.0048
17,CUUAAGGAGACCUUCUAAUGGGUUACCUAA,0.000416 ± 0.016
18,CUUAAGGAGACCUACUGACUGGGUUACCUAA,0.000103 ± 0.05
19,CUUAAGGAGACGAUGUACUGGGUAACCUAA,0.000175 ± 0.019
20,CUUAAGGAGAGCAUCUACUGGGUUAGCUAA,0.00261 ± 0.0045
21,CUUAAGGAGACGAUCUACUGGGUUACCAAA,0.00117 ± 0.006
22,CUUAAGGAGACCAUCUAACUGGGUUACCUAA,0.000887 ± 0.0093
23,CUUAAGCUCUGGAUUACUGGGUUACCUAA,0.0142 ± 0.0047
24,CUUAAGGAGACCUAGUACUGGGUUAACUAA,0.000258 ± 0.022

# Taken from above (5 entries):
row,Sequence,pre-steady-state target cleavage rate
13,CUUAAGGAGACGAUCUUCUGCGUUACCUAA,0.00256 ± 0.0031
14,CUUAACCUGUGGAUCUACUCGGUUACCUAA,0.00105 ± 0.013
15,CUUAAGGAGACCUUGAACUGGGUUACCUAA,0.000419 ± 0.017
16,CUUAAGGAGAGGAUCUAGUGGGUUACCUAA,0.00355 ± 0.0048
17,CUUAAGGAGACCUUCUAAUGGGUUACCUAA,0.000416 ± 0.016

# Remaining list, next part

row,Sequence,pre-steady-state target cleavage rate
1,CUUAAGGUCUGGAUCUACUGGGUUACCCAA,0.00342 ± 0.0051
2,CUUAAGCUCUGGAUCUACUGGGUUUCGUAA,0.0193 ± 0.0086
3,CUUAAGGAGUGGAUCUACGUGGGUUACCUAA,0.000183 ± 0.036
4,CUUAAGGAGACCUACGUACUGGGUUACCUAA,0.000297 ± 0.037
5,CUUAAGGAGAGGAUUCUACUGGGUUACCUAA,0.00418 ± 0.0043
6,CUUAAGGAGAGGAUGUACUGGGUUACCAAA,0.000383 ± 0.026
7,CUUAAGGAGUCGAUCUACUGGGUUUCCUAA,0.00241 ± 0.0043
8,CUUAAGGAGACCAUCUACUGGGUUGACCUAA,0.000514 ± 0.027
9,CUUAAGGAGACCAUGUACUGGGUUACGUAA,0.000293 ± 0.018
10,CUUAAGGAGACCUAGAUCAGCGUUACCUAA,0.000214 ± 0.039
11,CUUAAGGACUGGAUCAACUGGGAUACCUAA,0.00247 ± 0.014
12,CUUAAGGAGAGGUUCUACUGGGUUAGCUAA,0.000608 ± 0.01
13,CUUAAGGAGACCUAGAUGACCCAUACCUAG [g2:g7:cont:t1G],0.000117 ± 0.046
14,CUUAUCCUCUGGGUCUACUGGGUUACCUAA,0.206 ± 0.035
15,CUUAAGGAGACCUUCUACUGCGUUACCAAA,0.000139 ± 0.021
16,CUUAAGGAGACGAUCUACAGGGUUAGCUAA,0.000979 ± 0.0072
17,CUUAAGGUCUGCAUCUACUGGGUUACCAAA,0.0157 ± 0.0062
18,CUUAAGGAGACCUAGUACGGGGUUACCUAA,0.000434 ± 0.026
19,CUUAAGGACUGGAACUACUGGGAUACCUAA,0.00304 ± 0.0099
20,CUUAAGGACUGGAUCUACUGGGUGACCUAA,0.00583 ± 0.0079
21,CUUAAGGAGACCUUCUAGUGGGUUACCUAA,0.000529 ± 0.013
22,CUUAAGGAGAGGAUCUUCUGGGUUACCUUA,0.00299 ± 0.0054
23,CUUAAGGAGACCUAGAUGUGGUUUACCUAA,0.000501 ± 0.018
24,CUUAAGGAGACCAUCUACUCGGUUACCAAA,0.000489 ± 0.018

row,Sequence,pre-steady-state target cleavage rate
1,CUUAAGGAGACCUUCUACUGAGGUUACCUAA,0.00046 ± 0.011
2,CUUAAGGAGACCUUCUACUGGGUUACAUAA,0.000429 ± 0.029
3,CUUAAGGAGUGGAUCCUACUGGGUUACCUAA,0.00226 ± 0.004
4,CUUAAGGAGACCUCCUACUGGGUUACCUAA,0.000901 ± 0.011
5,CUUAAGGUCAGGUUCUACUGGGUUACCUAA,0.0166 ± 0.0093
6,CUUAAGGACUCGAUGUACUGGGUUACCUAA,0.00742 ± 0.0086
7,CUUAAGGAGACCUACUACUAGGUUACCUAA,0.000491 ± 0.0084
8,CUUAAGGAGUGGAUCAACUGGGUAACCUAA,0.00359 ± 0.0059
9,CUUAAGGAGACCAUCUACUGGGUUACCUAAA,0.00169 ± 0.0083
10,CUUAAGGAGUGGAUCUUCUGGGUUUCCUAA,0.00305 ± 0.0036
11,CUUAAGCUCUGGAUCUUGAGGGUUACCUAA,0.0041 ± 0.0045
12,CUUAAGGAGAGGAUCUACUGGGUUACUCUAA,0.000808 ± 0.016
13,CUUAUCCUCUGGAUCUACUGGGUUAGGAUA [g6:g26:cont:t1A],0.000628 ± 0.014
14,CUUAACCACUGGAUCUACUGGCUUACCUAA,0.00067 ± 0.016
15,CUUAAGGAGUCGAUCUUCUGGGUUACCUAA,0.00165 ± 0.0048
16,CUUAAGCUCAGGAUCUACUGGGUUUCCUAA,0.0265 ± 0.01
17,CUUAAGGAGAGGAUCUACUGGAUUACCUAA,0.000891 ± 0.018
18,CUUAACCUCUGGACUACUGGGUUACCUAA,0.156 ± 0.037
19,CUUAAGGAGAGCAUCAACUGGGUUACCUAA,0.00272 ± 0.0041
20,CUUAAGGAGACCUAGAUCUGCGUUACCUUA,0.000142 ± 0.061
21,CUUAAGGACUCGAUCAACUGGGUUACCUAA,0.00138 ± 0.011
22,CUUAAGGAGACCUAAUACUGGGUUACCUAA,0.000544 ± 0.012
23,CUUAACCUCUGGAUCAACUGGCUUACCUAA,0.00047 ± 0.02
